Measured values as given in patent US20070281327A1 (published 2007).
Results are given in words; binding and its absence hold for the method and conditions named. Binding calls can cover weak binding; strength is not graded here.

Target: monkey Mpl expressed on CHO cells (CHO-monkey Mpl) (monkey)
Assay: flow cytometry on CHO-monkey Mpl cells

B1: VA130 IgG (mouse monoclonal anti-human Mpl antibody VA130) (antibody, V domains shown)
VH: QVQLQQSGPELVKPGASVKISCKASGYAFSSSWMNWVKQRPGKGLEWIGRIYPGDGDTNYNGKFKGKATLTADKSSSTAYIQLSSLTSEDSAVYFCARGYADYSFAYWGQGTLVTVSA
VL: DIVMTQAAPSVPVTPGESVSISCRSSKSLLHSNGNTYLYWFLQRPGQSPQLLIYRMSNLASGVPDRFSGSGSGTAFTLRISRVEAEDVGVYYCMQHLEYPYTFGSGTKLEIK
notes: Whole mouse IgG from a hybridoma; also called VA130 antibody; VA130 anti-human Mpl antibody
binding: binds
